From PubChem BioAssay AID1471 (National Center for Advancing Translational Sciences (NCATS), 2008)
In all, about 230,000 compounds went through this assay and about 310 (0.13%) were called active. Inconclusive results, whose numbers are uncertain, are shown with a selection of clear calls. Calls come from the whole dose curve; as a rule, active = well fitted activation curve with a large enough effect; inconclusive = small, poorly fitted or top-dose-only effect; inactive = no such curve, though single readings can be large or run the other way. Where the call is inconclusive, the potency comes from a doubtful curve fit.

assay: qHTS Multiplex Assay to Identify Dual Action Probes in a Cell Model of Huntington: Cytoprotection (ATP); conditions: PC12 HTT-Q103 induced, ATP luminescence, 40 h; cytoprotection (ATP increase): at 56.4 µM (top of the series) unless noted; note: nearly all actives have a fitted effect of over 45% in size;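 for cytoprotection (ATP increase): toxic huntingtin expression switched on by the ecdysone agonist tebufenozide; % of control where 0% means no effect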
How it was run: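 Stable PC12 Q103-GFP cells in serum-supplemented, phenol red-free DMEM; induction by tebufenozide at 100 nM final; compound dose series; cell viability quantified luminescently from ATP.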
Potency is the fitted concentration of half-maximal effect.

Structure (SMILES) | Potency | cytoprotection (ATP increase)
CCOc1ccccc1NC(=S)NC(=O)CCCOc1ccc(Cl)cc1Cl | inconclusive: 1.26 µM [activator, single point] | 
O=C(CCc1nnc(C2CCCCC2)o1)N1CCN(Cc2ccccc2)CC1 | inconclusive: 3.16 µM [activator, single point] | 
C[N+]1(CC(O)COCC2COc3ccccc3O2)CCOCC1 (stereo not given) | inconclusive: 6.31 µM [activator, partial curve, poor fit] | 
CCC1=C(C)CN(C(=O)NCCc2ccc(S(=O)(=O)NC(=O)NC3CCC(C)CC3)cc2)C1=O (stereo not given) | inconclusive: 0.224 µM [activator, single point] | 
COc1cc(CNc2ccc(NC(C)=O)cc2)ccc1OCc1ccccc1C | inconclusive: 0.501 µM [activator, single point] | 
CCc1ccc(OCC(=O)NC(=S)Nc2ccc(C)cc2C)c(Br)c1 | inconclusive: 1 µM [activator, partial curve, poor fit] | 
CC(=O)c1cccc(NS(C)(=O)=O)c1 | inconclusive: 2.82 µM [activator, partial curve] | 
Cc1nn(Cc2ccccc2)c(C)c1/C=N/NC(=O)CNc1cccc(C(F)(F)F)c1 | inconclusive: 1.26 µM [activator, single point] | 
Nc1nonc1OCCOCCOCCOc1nonc1N | inconclusive: 3.16 µM [activator, single point] | 
COc1cc(C(=O)Oc2cccc(Nc3ncnc4ccccc34)c2)cc(OC)c1OC | inactive | 
CS(=O)(=O)N(CC(=O)NC1CC2CCC1C2)c1ccc(Oc2ccccc2)cc1 (stereo not given) | inconclusive: 0.794 µM [activator, single point] | 
C[C@]12CC[C@@H]3c4ccc(O)cc4CC[C@H]3[C@@H]1CC[C@H]2O | inconclusive: 1.26 µM [activator, full curve] | 
O=C1c2ccccc2C(Cc2ccnc(F)c2)(Cc2ccnc(F)c2)c2ccccc21 | inactive | 
CCOC(=O)c1sc2nc(C)[nH]c(=S)c2c1C | inconclusive: 35.5 µM [activator, single point] | 
O=C(/C=C/c1cccc([N+](=O)[O-])c1)c1ccccc1 | inactive | 
COc1ccc(C2C(C(=O)/C=C/c3ccco3)=C(O)C(=O)N2CCN2CCOCC2)cc1 (stereo not given) | inactive | 
COc1ccc(Oc2ncc3nc(C)c(=O)n(Cc4cccc(OC)c4)c3n2)cc1 | inactive | 
CN(C)CCCN(C(=O)CCc1ccccc1)c1nc2ccc(F)cc2s1 | inconclusive: 1.26 µM [activator, single point] | 
Cc1cc(C)c2cc(CN(Cc3ccc4c(c3)OCO4)Cc3nnnn3Cc3ccco3)c(=O)[nH]c2c1 |  | inactive: -20.4% [at 10 µM]
O=C(C1=C(O)C(=O)N(CCCN2CCOCC2)C1c1ccncc1)c1cc2ccccc2o1 (stereo not given) |  | inactive: 16% [at 10 µM]
COCCN(C(=O)CNC(=O)c1cccs1)C(C(=O)NC1CCCC1)c1cccs1 (stereo not given) |  | inactive: -8.58% [at 10 µM]
O=c1cnc2cnc(Oc3ccccc3)nc2n1Cc1cccs1 | inconclusive: 20 µM [activator, partial curve] | 
Cc1ccc(NN2C(=O)C=C(c3ccc(Cl)cc3)C2=O)cc1 | inactive | 

Structure (SMILES) | Potency | cytoprotection (ATP increase)
COCCOC(=O)C1=C(C)NC(C)=C(C(=O)OC/C=C/c2ccccc2)C1c1cccc([N+](=O)[O-])c1 (stereo not given) | inactive | 
C=CCN1C(=O)c2ccc(C(=O)OCC(=O)N(C)C3CCCCC3)cc2C1=O | inconclusive: 2.51 µM [activator, partial curve] | 
Cc1ccc(-c2csc(N3CCC(NS(=O)(=O)c4ccc5c(c4)OCCO5)CC3)n2)cc1 | inconclusive: 15.8 µM [activator, single point] | 
C=CCNC(=O)C(C(=O)OCC)C1CCCCC1 (stereo not given) |  | inactive: -0.771% [at 10 µM]
CCc1ccc(/C=C2\SC(=S)N(CCCC(=O)Nc3ccccn3)C2=O)cc1 | inconclusive: 0.447 µM [activator, full curve, poor fit] | 
COc1ccc(CCNc2oc(COc3ccccc3)nc2C#N)cc1 | inconclusive: 5.62 µM [activator, single point] | 
O=C(CSc1nnc(-c2cnccn2)n1Cc1ccco1)c1ccccc1 | inactive | 
CN(C)C(=O)COC(=O)/C=C/c1ccccc1[N+](=O)[O-] | inactive | 
Cc1ccc(-c2nnn(CC(=O)N(Cc3ccco3)C(C(=O)NC(C)(C)C)c3cccs3)n2)o1 (stereo not given) |  | inactive: -11.3% [at 10 µM]
CCCCCCCCCCCCCCCCCCO | inconclusive: 14.1 µM [activator, partial curve] | 
CCn1c(C)cs/c1=N\C(=S)Nc1ccccc1C | inconclusive: 3.16 µM [activator, partial curve] | 
CCc1ccc2oc(=O)cc(CN3CCOCC3)c2c1 | inconclusive: 1.12 µM [activator, single point] | 
O=C(O)CCCCCN1C(=O)/C(=C\c2cn(-c3ccccc3)nc2-c2cccs2)SC1=S | inconclusive: 2.82 µM [activator, partial curve] | 
Cc1nc(-c2ccc(-n3nncc3-c3ccco3)cc2)cs1 |  | inactive: -1.58% [at 10 µM]
Cc1cc(C(F)(F)F)nn1Cc1n[nH]c(=S)n1-c1ccc(Cl)cc1 | inactive | 
Cc1cc(N2C(=O)C3CC=CC(C)C3C2=O)no1 (stereo not given) |  | inactive: 14.9% [at 10 µM]
Cc1oc2c(c1C(=O)c1ccc(Cl)cc1)C(=O)C(=O)c1ccccc1-2 | inactive | 
CCOC(=O)C(C)Oc1ncnc2cccc(F)c12 (stereo not given) | inconclusive: 0.891 µM [activator, single point] | 
CC(=O)OCC1OC(C#Cc2ccc(C(C)(C)C)cc2)C=CC1OC(C)=O (stereo not given) | inconclusive: 5.62 µM [activator, partial curve, poor fit] | 
CCOC(=O)N1CCC(N(CCCOC)C(=O)Nc2ccc(CC)cc2)CC1 | inconclusive: 5.62 µM [activator, single point] | 
O=C(CSc1c2c(nc3cc(Cl)ccc13)CCCC2)NCCCN1CCOCC1 | inconclusive: 5.62 µM [activator, single point] | 
Cc1nc2sc(-c3ccccc3)cc2c(=O)n1N |  | inactive: -37% [at 10 µM]

No new results follow: an excerpt of the list.
Structure (SMILES) | Potency | cytoprotection (ATP increase)
Cc1oc2c(c1C(=O)c1ccc(Cl)cc1)C(=O)C(=O)c1ccccc1-2 | inactive | 
CCOC(=O)C(C)Oc1ncnc2cccc(F)c12 (stereo not given) | inconclusive: 0.891 µM [activator, single point] | 
CC(=O)OCC1OC(C#Cc2ccc(C(C)(C)C)cc2)C=CC1OC(C)=O (stereo not given) | inconclusive: 5.62 µM [activator, partial curve, poor fit] | 
CCOC(=O)N1CCC(N(CCCOC)C(=O)Nc2ccc(CC)cc2)CC1 | inconclusive: 5.62 µM [activator, single point] | 
